Measured values: paper PMC7320039
These are yes or no findings as the source states them, for the method shown. In cells and extracts the contact can be indirect. These calls come from enrichment with a bait or labelling near it, and not all partners need be listed.

By UniProt entry, the sequences of proteins in these tests, tags left out. Residues count along the entry.
UniProt P46531, residues 19-2555: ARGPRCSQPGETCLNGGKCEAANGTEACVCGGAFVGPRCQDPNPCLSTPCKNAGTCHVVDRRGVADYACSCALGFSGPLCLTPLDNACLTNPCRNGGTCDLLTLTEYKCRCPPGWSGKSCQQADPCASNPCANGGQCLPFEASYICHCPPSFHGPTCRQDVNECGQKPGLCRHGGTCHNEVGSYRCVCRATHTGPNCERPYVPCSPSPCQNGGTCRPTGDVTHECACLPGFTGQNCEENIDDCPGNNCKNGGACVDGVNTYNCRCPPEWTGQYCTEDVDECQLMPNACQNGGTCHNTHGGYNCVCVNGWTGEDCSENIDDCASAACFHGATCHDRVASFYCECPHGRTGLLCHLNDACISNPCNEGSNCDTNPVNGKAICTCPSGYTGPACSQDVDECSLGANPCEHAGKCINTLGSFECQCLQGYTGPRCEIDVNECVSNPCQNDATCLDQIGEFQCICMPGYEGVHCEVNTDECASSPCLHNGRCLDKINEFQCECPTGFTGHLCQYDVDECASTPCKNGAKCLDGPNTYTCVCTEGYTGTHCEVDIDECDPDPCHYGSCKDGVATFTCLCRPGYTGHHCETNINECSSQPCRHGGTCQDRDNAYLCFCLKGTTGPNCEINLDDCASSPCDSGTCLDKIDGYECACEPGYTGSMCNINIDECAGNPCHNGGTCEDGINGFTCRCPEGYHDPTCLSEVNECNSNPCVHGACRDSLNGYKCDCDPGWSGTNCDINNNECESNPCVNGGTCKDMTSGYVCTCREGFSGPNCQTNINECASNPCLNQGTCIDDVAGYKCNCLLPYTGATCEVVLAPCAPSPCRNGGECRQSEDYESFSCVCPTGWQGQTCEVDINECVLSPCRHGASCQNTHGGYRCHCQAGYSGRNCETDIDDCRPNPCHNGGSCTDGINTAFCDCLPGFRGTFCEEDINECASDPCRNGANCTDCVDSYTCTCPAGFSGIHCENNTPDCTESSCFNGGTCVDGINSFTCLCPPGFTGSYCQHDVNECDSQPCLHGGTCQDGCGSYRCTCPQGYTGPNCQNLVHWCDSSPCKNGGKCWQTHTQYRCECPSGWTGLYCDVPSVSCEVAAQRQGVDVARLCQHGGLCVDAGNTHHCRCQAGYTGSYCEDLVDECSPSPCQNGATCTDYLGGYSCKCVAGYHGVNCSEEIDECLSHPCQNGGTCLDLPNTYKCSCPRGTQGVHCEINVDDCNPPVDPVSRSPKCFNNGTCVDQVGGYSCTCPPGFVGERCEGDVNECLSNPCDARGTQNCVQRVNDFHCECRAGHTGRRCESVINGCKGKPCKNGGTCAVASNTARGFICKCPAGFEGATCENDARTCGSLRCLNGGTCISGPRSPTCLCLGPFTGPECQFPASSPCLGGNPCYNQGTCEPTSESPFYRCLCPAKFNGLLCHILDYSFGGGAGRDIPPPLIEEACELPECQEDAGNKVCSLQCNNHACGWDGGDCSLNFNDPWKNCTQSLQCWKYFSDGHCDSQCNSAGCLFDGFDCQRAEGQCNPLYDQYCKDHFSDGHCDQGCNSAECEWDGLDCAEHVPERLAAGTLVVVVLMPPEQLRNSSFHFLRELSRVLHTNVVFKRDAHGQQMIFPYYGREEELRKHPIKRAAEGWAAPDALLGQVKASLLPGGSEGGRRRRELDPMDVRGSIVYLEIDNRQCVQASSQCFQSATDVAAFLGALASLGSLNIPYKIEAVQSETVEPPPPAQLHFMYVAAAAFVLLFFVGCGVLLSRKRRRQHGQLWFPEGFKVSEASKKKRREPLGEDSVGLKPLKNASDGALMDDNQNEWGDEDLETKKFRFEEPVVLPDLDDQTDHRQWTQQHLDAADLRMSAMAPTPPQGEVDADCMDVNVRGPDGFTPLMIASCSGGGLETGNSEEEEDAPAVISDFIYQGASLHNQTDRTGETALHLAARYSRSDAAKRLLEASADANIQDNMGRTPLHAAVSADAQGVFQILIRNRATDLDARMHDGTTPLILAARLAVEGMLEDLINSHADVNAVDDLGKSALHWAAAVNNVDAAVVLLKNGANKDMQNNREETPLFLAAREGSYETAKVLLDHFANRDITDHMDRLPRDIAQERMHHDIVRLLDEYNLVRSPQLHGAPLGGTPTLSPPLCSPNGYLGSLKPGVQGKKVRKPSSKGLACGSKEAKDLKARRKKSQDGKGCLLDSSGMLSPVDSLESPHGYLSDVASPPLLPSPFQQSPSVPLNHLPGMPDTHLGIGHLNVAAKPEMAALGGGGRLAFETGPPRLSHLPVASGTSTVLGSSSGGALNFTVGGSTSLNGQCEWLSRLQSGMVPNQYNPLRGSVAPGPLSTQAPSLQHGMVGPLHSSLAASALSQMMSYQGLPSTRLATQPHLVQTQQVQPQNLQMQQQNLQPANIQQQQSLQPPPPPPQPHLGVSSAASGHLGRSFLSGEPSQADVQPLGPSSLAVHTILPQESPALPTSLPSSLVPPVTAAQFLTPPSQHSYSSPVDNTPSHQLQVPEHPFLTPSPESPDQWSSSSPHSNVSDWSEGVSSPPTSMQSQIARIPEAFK

Target: T1, DYRK2 (bait of the immunoprecipitation followed by mass spectrometry) (human) (UniProt Q92630)
T1 sequence: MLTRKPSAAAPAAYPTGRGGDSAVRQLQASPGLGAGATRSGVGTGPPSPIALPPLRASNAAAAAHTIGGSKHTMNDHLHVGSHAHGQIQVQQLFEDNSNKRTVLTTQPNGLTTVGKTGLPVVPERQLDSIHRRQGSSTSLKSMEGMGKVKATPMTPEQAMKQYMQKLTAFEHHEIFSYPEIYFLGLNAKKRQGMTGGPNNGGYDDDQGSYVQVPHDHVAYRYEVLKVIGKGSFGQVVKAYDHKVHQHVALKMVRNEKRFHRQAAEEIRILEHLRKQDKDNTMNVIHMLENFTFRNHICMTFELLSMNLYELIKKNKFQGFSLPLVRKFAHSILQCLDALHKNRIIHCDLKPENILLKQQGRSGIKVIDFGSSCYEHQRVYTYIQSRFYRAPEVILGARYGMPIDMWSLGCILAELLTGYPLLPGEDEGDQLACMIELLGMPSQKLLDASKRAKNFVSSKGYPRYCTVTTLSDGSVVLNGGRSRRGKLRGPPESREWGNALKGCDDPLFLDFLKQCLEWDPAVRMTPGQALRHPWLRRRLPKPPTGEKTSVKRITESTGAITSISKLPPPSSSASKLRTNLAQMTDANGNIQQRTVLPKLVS
Experiment: affinity purification with mass spectrometry; immunoprecipitation of DYRK2 followed by mass spectrometry; details in Supplementary Materials and methods

For “NOTCH1 (hit of the DYRK2 immunoprecipitation with mass spectrometry) (from UniProt P46531 19-2555) (receptor)”, the binding was “binds”.
